Measured values published in PubChem BioAssay (NCATS).
The inconclusive results got no clear call from the source; some entries with a clear call stand among them for comparison. Potencies beside an inconclusive call are fits to weak or partial responses and may not hold up. The source made the active and inactive calls. The call rests on the fitted dose curve; in most records, active means well fitted cell-killing curve with a large enough effect; inconclusive means small, poorly fitted or top-dose-only effect, or effect the other way; inactive means flat fitted curve, though single readings scatter.

Test: qHTS for Inhibitors of Ubiquitin-specific Protease USP2a Using CHOP2 as the Reporter: Cytotox Assay (AID 652170); further: nearly all actives have a fitted effect of over 70% in size;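 on activity change, negative = cytotoxicity: HCT116 human colon cancer cells at 600 per well; plate controls were DMSO-treated cells for no effect and wells without cells for full effect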
Conditions: HCT116 viability, CellTiter-Glo luminescence, 72 h; activity change, negative = cytotoxicity: at 46.1 µM (top of the series)
Summary of the method: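 Cytotoxicity read as ATP luminescence (CellTiter-Glo) after 72 hr compound treatment at 37 deg C. Cells: HCT116, 600/well in DMEM plus 10% FBS. Normalization between DMSO-treated cells and cell-free wells.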
Potency means the concentration at half of the fitted maximal effect.

For O=C(Nc1nc(-c2ccccc2)cs1)c1ccncc1NS(=O)(=O)c1ccc(-c2ccccc2)cc1, which Potency is on record?
Its Potency is inconclusive: 23.5 µM [cytotoxic, single point].

Which Potency does the source give for Cc1ccc(S(=O)(=O)Nc2ccccc2C(=O)Nc2ccc(-c3ccccc3)nc2)cc1 here?
The Potency was active: 20.9 µM.

Which Potency does the source give for Cc1ccc(S(=O)(=O)Nc2ccccc2C(=O)Nc2ncc(-c3ccccc3)o2)cc1 here?
The Potency was active: 4.69 µM.

Which Potency does the source give for Cc1ccc(S(=O)(=O)Nc2cnccc2C(=O)Nc2nc(-c3ccccc3Cl)cs2)cc1 here?
The Potency was inconclusive: 23.5 µM [cytotoxic, single point].

Which activity change, negative = cytotoxicity does the source give for Cc1ccc(S(=O)(=O)Nc2cccc(C(=O)Nc3nc(-c4ccc(Cl)cc4)cs3)c2)cc1 here?
Its activity change, negative = cytotoxicity is inconclusive: -96.8%.

With Cc1ccc(S(=O)(=O)Nc2ccccc2C(=O)Nc2nccs2)cc1 as the compound, how does the activity change, negative = cytotoxicity read?
Its activity change, negative = cytotoxicity is inconclusive: -68.9%.

For Cc1ccc(S(=O)(=O)Nc2ccccc2C(=O)Nc2nc(-c3ccccc3)c(C)s2)cc1, which Potency is on record?
The Potency was inconclusive: 33.2 µM [cytotoxic, single point].

With Cc1ccc(S(=O)(=O)Nc2cnccc2C(=O)Nc2nc(-c3cccc(C)c3)cs2)cc1 as the compound, how does the Potency read?
Its Potency is inconclusive: 20.9 µM [cytotoxic, single point].

For Cc1ccc(-c2cc(C(=O)Nc3cccc(S(N)(=O)=O)c3)c3ccccc3n2)cc1C, which Potency is on record?
Its Potency is inconclusive: 8.33 µM [rising, full curve, poor fit].

With COc1cc(NS(=O)(=O)c2ccc(C)cc2)ccc1C(=O)Nc1nc(-c2ccccc2)cs1 as the compound, how does the Potency read?
The Potency was inconclusive: 33.2 µM [cytotoxic, single point].

Which Potency does the source give for Cc1ccc(CNc2ccccc2C(=O)Nc2nc(-c3ccccc3)cs2)cc1 here?
The Potency was inconclusive: 18.7 µM [cytotoxic, single point].
